Results are given in words; binding and its absence hold for the method and conditions named. Binding seen in cells or lysates may run through a third protein. Some entries that bind do so weakly or less than the wild type. Tags and fused reporters may be left off the sequences shown.
Biological target: T1, FLAG::CG33172 (Drosophila melanogaster) (UniProt Q86B53)
T1 sequence: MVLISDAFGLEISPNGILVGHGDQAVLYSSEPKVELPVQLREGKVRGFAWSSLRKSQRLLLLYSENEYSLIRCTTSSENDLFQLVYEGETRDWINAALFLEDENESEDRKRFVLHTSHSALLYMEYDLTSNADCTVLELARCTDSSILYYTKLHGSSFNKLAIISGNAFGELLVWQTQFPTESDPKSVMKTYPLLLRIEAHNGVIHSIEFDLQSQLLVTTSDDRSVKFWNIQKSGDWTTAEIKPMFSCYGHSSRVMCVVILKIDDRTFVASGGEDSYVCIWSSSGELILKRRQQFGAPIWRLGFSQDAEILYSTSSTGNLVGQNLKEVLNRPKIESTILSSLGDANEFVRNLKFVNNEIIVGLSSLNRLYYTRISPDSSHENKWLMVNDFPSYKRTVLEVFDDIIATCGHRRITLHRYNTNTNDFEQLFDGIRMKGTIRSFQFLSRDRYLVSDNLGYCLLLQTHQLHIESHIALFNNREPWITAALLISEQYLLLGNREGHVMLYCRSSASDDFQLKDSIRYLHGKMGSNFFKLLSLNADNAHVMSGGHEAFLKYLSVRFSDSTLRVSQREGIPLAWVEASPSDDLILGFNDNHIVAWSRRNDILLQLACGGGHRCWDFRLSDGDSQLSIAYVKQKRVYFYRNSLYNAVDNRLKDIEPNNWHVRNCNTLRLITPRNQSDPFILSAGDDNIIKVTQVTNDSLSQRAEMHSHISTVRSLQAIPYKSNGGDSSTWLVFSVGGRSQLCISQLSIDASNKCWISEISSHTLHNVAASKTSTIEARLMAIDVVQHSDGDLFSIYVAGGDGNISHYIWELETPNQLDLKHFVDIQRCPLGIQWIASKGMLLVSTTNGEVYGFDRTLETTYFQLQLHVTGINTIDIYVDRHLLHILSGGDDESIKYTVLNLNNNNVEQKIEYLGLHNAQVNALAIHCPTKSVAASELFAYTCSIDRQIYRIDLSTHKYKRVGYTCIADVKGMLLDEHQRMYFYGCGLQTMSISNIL
Assay: co-IP; GST::CG7009 or GST alone co-expressed with FLAG::CG33172 in E. coli C41; purified over Flag-coupled resin, washed three times in 500 mM KCl, eluted with Flag peptide; western blot with anti-GST HRP conjugate

- binding: binds
B1: GST::CG7009 (enzyme, UniProt Q9VDD9 1-320)
chain: MGRTSKDKRDIFYRLAKEQGWRARSAFKLLQADETFQLLEGLTRAVDLCAAPGSWSQVLAKRLYEPLPPEEREKVKIIAVDLQGMAPIEGVKQLRADISKESTAEAIIEFFGGEKAQIVVSDGAPDSTGMHDFDSYVQGELLLSALSISTFILEEGGSFVSKIYRADRTSRLYTQLKRFFKNVCVFKPSASRNSSIEAFVVAREFCLPDGYKPCNLTTEWHDQPESWVGRKKESPPVVQVPFVAYKGELDSDRTYDLGENYVYKEPVQQPLTAAYQDILQKTSQVNIKYEGIRVIHDEEMLKKWLENDENKSEKLGACVT

Source: article PMC7038984
